In the data set the test system is P-eIF2α and PP1c. The data set is described as follows: Visualisation of protein precipitates. On the set-up: species or system human.
The mark [1] stands for this setting: 2 mM compound added to 1 μM P-eIF2α or PP1c.

Structures are written as SMILES.

With `O=C(/C=C/c1ccccc1)NC(NC(=S)Nc1cccc2cccnc12)C(Cl)(Cl)Cl` (stereo not drawn) [Salubrinal], the precipitation of proteins result (Salubrinal 30 μM up to 2 mM added to 1 μM P-eIF2α or PP1c) is listed as “induced the precipitation of proteins”.

Consider `N=C(N)N/N=C/c1c(Cl)cccc1Cl` [Guanabenz], for which, under setting [1], the precipitation of proteins result was “unlike Guanabenz, Sephin1 and Raphin1”.

As to `NC(N)=N/N=C/c1cccc(Cl)c1Cl` [Raphin1], the precipitation of proteins entry under setting [1] is “unlike Guanabenz, Sephin1 and Raphin1”.

Values taken from US20200199647A1, “ASSAY FOR SCREENING MODULATORS OF HOLOPHOSPHATASE ACTIVITY” (UNITED KINGDOM RESEARCH AND INNOVATION, priority 2017, published 2020).
